PubChem BioAssay AID652243 – Drosophila RNAi Screening Center | 2013
Test: 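Fly regulators of androgen-dependent reporter output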 (primary screen). Cells: Drosophila S2R+ cells. Reagents: long dsRNA against Drosophila genes. Timing: 72 h (48 h, then 24 h hormone). Challenge: synthetic androgen R1881 at 10 nM for 24 h. Measurement: 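Firefly light from an androgen-responsive reporter and Renilla control light per well, raw and unnormalised, for each of two replicates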. Scale: firefly reporter light: higher = more light from androgen-responsive reporter; Renilla control light: higher = more constitutive control signal (cell number, transfection). Active means: 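Across duplicate plates, a knock-down whose log firefly/Renilla ratio shifted a set fold down or up from the GFP/LacZ control mean was a hit; the downward cut appears as both 1.5 and 3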. Meaning of the calls: active = hit: reporter lowered or raised; inactive = no hit.
The deposit covers about 24,000 reagents; this is a random part of those with a known target gene and a result. Over the whole deposit, 246 (1%) are marked active. 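Plates not normalised; calls are printed but the firefly/Renilla ratio behind them is not deposited; fold cut for lowering reported inconsistently.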 The raw values are shown without normalisation. A plus sign joins genes that one reagent is predicted to hit. Not given: the amount of reagent.

Target gene,amplicon,"firefly reporter light, replicate 1","firefly reporter light, replicate 2","Renilla control light, replicate 1","Renilla control light, replicate 2",activity call
CG33666 + CG33669 + CG33668 + 3 more,DRSC37820,1.00e6,9.97e5,1.77e6,1.61e6,inactive
CG32532,DRSC19556,2.89e5,3.27e5,1.06e6,6.04e5,inactive
CG32532,DRSC19557,2.16e5,1.40e5,5.94e5,4.45e5,inactive
CG32532,DRSC21370,6.22e5,5.93e5,2.12e6,1.82e6,inactive
Cpr50Cb,DRSC06975,1.24e5,1.34e5,2.98e6,2.98e6,inactive
Cpr50Cb,DRSC25171,1.44e6,1.47e6,9.60e5,1.24e6,inactive
Acp53C14a,DRSC07224,46597,41088,7.24e5,7.24e5,inactive
Xpac,DRSC18730,2.04e5,2.73e5,2.90e6,2.89e6,inactive
Xpac,DRSC25963,5.38e5,4.22e5,1.11e6,7.88e5,inactive
Cpr49Af,DRSC07202,2.19e5,2.04e5,1.47e6,1.24e6,inactive
Cpr49Af,DRSC24397,9.54e5,6.94e5,7.76e5,8.97e5,inactive
CG14232,DRSC19588,1.43e5,1.77e5,1.26e6,8.76e5,inactive
CG14232,DRSC27714,1.87e5,2.26e5,6.08e5,8.44e5,inactive
CG10321,DRSC04061,3.41e5,3.74e5,2.34e6,3.09e6,inactive
CG10321,DRSC28284,3.50e5,7.48e5,1.08e6,1.48e6,inactive
Cpr30F,DRSC02908,8.66e5,6.91e5,1.98e6,2.45e6,inactive
Cpr30F,DRSC25531,7.06e5,7.82e5,9.55e5,7.96e5,inactive
CG9498,DRSC03235,1.68e5,1.47e5,1.29e6,1.12e6,inactive
CG11437,DRSC11659,2.40e5,2.69e5,2.98e6,3.20e6,inactive
cup,DRSC03516,7.65e5,1.13e6,1.01e6,1.08e6,inactive
cup,DRSC24610,5.30e5,2.84e5,3.92e5,3.67e5,inactive
His-Psi:CR31754,DRSC22051,8.12e5,7.70e5,40264,20811,inactive
CG17207,DRSC15198,42883,30360,1.50e6,1.09e6,inactive
CG10803,DRSC17763,57167,68150,4.91e5,5.64e5,inactive
CG10803,DRSC26282,3.53e5,3.62e5,5.56e5,5.19e5,inactive
CG34297,DRSC38827,6.30e5,6.49e5,1.71e6,1.59e6,inactive
CG10283,DRSC02034,1.03e6,1.25e6,2.28e6,2.06e6,inactive
CG10283,DRSC25302,7.87e5,8.78e5,8.81e5,1.05e6,inactive
Med,DRSC25769,3.17e5,2.21e5,7.43e5,5.89e5,inactive

The list goes on, starting with the last 6 of the part before.
Target gene,amplicon,"firefly reporter light, replicate 1","firefly reporter light, replicate 2","Renilla control light, replicate 1","Renilla control light, replicate 2",activity call
CG10803,DRSC17763,57167,68150,4.91e5,5.64e5,inactive
CG10803,DRSC26282,3.53e5,3.62e5,5.56e5,5.19e5,inactive
CG34297,DRSC38827,6.30e5,6.49e5,1.71e6,1.59e6,inactive
CG10283,DRSC02034,1.03e6,1.25e6,2.28e6,2.06e6,inactive
CG10283,DRSC25302,7.87e5,8.78e5,8.81e5,1.05e6,inactive
Med,DRSC25769,3.17e5,2.21e5,7.43e5,5.89e5,inactive
Arl5,DRSC10785,7.48e5,9.07e5,1.82e6,2.32e6,inactive
Arl5,DRSC25831,3.66e5,3.40e5,1.10e6,1.06e6,inactive
CG34133,DRSC16319,45437,30275,5.98e5,4.05e5,inactive
CG34133,DRSC22239,5.78e5,5.82e5,1.87e6,2.13e6,inactive
CG34133,DRSC25658,6.54e5,8.74e5,9.40e5,8.56e5,inactive
CG34133,DRSC29408,3.67e5,3.51e5,6.70e5,6.70e5,inactive
CG2701,DRSC18590,1.36e5,81483,9.46e5,5.72e5,inactive
Ance-2,DRSC02539,1.93e5,1.94e5,1.13e6,1.65e6,inactive
Ctps,DRSC09342,1.09e6,7.60e5,5.00e5,2.62e5,inactive
Ctps,DRSC10728,9.35e5,7.52e5,1.35e6,1.17e6,inactive
Ctps,DRSC10729,1.73e5,1.50e5,1.74e6,1.75e6,inactive
CG33514,DRSC08471,6.77e5,7.05e5,2.66e6,2.48e6,inactive
CG33514,DRSC08472,1.30e5,1.28e5,1.37e6,1.78e6,inactive
CG33514,DRSC21670,5.89e5,5.25e5,2.55e6,2.34e6,inactive
Pld,DRSC04854,1.26e6,8.24e5,2.20e6,1.30e6,inactive
Pld,DRSC24641,5.26e5,5.28e5,4.50e5,4.52e5,inactive
stan,DRSC05234,10424,13186,1.09e5,1.20e5,active
stan,DRSC07697,2.44e5,2.18e5,1.94e6,1.55e6,inactive
PGRP-LF,DRSC28930,7.95e5,8.51e5,7.98e5,1.12e6,inactive
qkr58E-1,DRSC04709,7.22e5,5.66e5,7.50e5,9.40e5,inactive
qkr58E-1,DRSC23841,4.50e5,3.57e5,5.02e5,5.75e5,inactive
CG8012,DRSC10951,3.42e5,2.52e5,4.01e6,2.96e6,inactive
CG2656,DRSC12584,51859,40789,2.88e5,3.07e5,inactive
CG8043,DRSC16368,3.54e5,2.14e5,3.97e6,2.15e6,inactive
Obp99a,DRSC15303,1.07e5,2.12e5,1.20e6,2.21e6,inactive
CG32313,DRSC21450,9.15e5,8.22e5,1.63e6,1.37e6,inactive
Or22a,DRSC00764,1.53e5,1.72e5,7.95e5,9.57e5,inactive
Or22a,DRSC26009,5.02e5,5.16e5,8.52e5,7.01e5,inactive
Ptpmeg,DRSC08684,9.19e5,1.01e6,1.09e6,1.27e6,inactive
Ptpmeg,DRSC26348,3.89e5,4.48e5,7.70e5,6.96e5,inactive
Ptpmeg,DRSC36883,,,,,inactive
Ptpmeg,DRSC36884,,,,,inactive
